In this data set the test system is primordial-to-primary follicle transition. In words: In vitro organ culture of mouse ovaries with compound, H&E histology and counting of primordial, primary and secondary follicles. To be noted: 10 mM NCG, 96 hours; no statistical results. How it is done: Ovaries obtained from mice were washed twice with culture medium. Antagonists or agonists to be tested were dissolved in suitable solvents and added to the medium. As a control medium comprising solvent without the antagonist or agonist was used. One of the ovaries was cultured in a control medium and another was cultured with the antagonist or agonist. The tested antagonists or agonists and their concentrations are outlined in table 2.
Ovaries were incubated with antagonist at 37° C. and 5% CO2 for 24 and 96 hours, respectively (see table 3).
Cultures ovaries were fixed, embedded in paraffin and sliced microscopy. The sectioned ovaries were stained with hematoxylin and eosin (H&E) to visualize the morphology of the ovary by microscopy.
The number of primordial, primary and secondary follicles was determined, and it was determined whether the antagonist or agonist was capable of regulating folliculogenesis.
C57BL/6j×CBA F1 hybrid mice (Janvier Labs, France) were housed and bred in the animal facilities at Department of Biomedicine, Aarhus University. […]
The number of follicles at each developmental stage was counted using an inverted research microscope (DM14000B, Leica Microsystems, Germany). The follicles of every 3rd to 4th section of each ovary were counted and the distribution of follicles in the different stages in percentage was determined.

“Also recorded” adds a separate entry of the source.

`NC(=O)N[C@@H](CCC(=O)O)C(=O)O` [NCG, (2S)-2-(carbamoylamino)pentanedioic acid]: the “shape of follicles and oocytes (morphology)” value is “follicles were very well shaped and oocytes were intact; also recorded: oocytes seemed to be more naturally shaped than any of the other treatment forms”.
